Assay results as given in paper PMC7721363.
Results are given in words; binding and its absence hold for the method and conditions named. Binding seen in cells or lysates may run through a third protein. Some entries that bind do so weakly or less than the wild type.

Chains of the proteins cited; added tags and fusions are not shown.
UniProt O43474: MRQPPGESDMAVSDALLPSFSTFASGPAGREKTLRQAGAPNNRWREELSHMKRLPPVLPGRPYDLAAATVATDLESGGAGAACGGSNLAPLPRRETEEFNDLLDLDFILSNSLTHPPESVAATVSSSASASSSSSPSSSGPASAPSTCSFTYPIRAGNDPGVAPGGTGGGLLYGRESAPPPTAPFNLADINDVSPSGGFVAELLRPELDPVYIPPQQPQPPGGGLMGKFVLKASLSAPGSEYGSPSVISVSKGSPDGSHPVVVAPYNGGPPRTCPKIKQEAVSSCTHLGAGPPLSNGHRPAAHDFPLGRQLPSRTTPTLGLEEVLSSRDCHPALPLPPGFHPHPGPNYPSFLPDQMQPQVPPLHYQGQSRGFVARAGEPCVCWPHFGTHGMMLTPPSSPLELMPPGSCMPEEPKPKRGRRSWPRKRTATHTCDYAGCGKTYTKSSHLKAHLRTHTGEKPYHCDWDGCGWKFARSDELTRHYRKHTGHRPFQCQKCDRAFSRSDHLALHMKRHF
UniProt P09874: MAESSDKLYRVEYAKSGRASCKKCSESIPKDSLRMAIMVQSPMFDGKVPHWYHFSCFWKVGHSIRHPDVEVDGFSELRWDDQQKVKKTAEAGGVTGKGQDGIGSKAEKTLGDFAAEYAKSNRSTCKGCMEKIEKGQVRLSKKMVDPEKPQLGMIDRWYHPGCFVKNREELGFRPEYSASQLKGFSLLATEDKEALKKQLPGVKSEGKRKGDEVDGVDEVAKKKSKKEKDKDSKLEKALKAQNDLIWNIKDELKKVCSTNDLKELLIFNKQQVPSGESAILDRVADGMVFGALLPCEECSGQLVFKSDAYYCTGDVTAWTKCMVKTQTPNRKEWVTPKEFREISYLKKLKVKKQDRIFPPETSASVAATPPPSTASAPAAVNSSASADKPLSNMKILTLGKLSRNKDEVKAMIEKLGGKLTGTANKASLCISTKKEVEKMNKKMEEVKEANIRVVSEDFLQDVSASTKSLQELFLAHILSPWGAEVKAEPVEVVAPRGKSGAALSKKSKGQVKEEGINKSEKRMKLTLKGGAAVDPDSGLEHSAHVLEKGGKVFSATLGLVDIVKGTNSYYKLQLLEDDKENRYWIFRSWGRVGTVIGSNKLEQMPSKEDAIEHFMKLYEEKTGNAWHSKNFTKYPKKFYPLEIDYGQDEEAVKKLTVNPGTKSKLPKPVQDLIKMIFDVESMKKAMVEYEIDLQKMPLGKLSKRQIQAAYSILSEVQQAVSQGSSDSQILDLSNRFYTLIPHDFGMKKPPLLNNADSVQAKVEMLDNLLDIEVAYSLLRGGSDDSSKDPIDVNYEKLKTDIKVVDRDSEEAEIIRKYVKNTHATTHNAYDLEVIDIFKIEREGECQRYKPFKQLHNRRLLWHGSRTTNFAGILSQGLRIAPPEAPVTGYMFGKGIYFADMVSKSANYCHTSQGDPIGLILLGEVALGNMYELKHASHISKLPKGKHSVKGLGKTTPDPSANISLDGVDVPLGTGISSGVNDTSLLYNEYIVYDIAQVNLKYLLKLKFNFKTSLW

Legend:
[1] = target: KLF4, endogenous in MDA-MB-231 cells (human (endogenous in MDA-MB-231)) (UniProt O43474); assay: proximity ligation; in situ PLA in MDA-MB-231 cells; rabbit anti-PARP (46D11) and mouse anti-KLF4 (F-8); control KLF4/rabbit IgG
[2] = target: KLF4, endogenous in MDA-MB-231 cells (human (endogenous in MDA-MB-231)) (UniProt O43474); assay: co-IP; endogenous proteins, MDA-MB-231 cytosolic and nuclear lysates; IP of the KLF4 complex and blot for PARP1; also with ethidium bromide added to the lysate

In the case of “PARP1, endogenous in MDA-MB-231 cells (from UniProt P09874 1-1014)”, the binding [1] is reported as “binds” and the binding [2] is reported as “binds”.
